Data as given in PubChem BioAssay AID1508597 (Cure First, 2020).
Assay: 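Survival screen with siRNA in ovarian cancer cells derived from patients, with or without rucaparib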 (primary screen). Cells: human ovarian carcinoma lines grown from tumours: OCI-P5x (papillary serous) and OCI-C5x (clear cell). Reagent: siRNA pool against human genes, 1.25 pmol siRNA per well. Duration: 72 h or 96 h, depending on the cell culture. Challenge: rucaparib 20 µM (about IC30) or vehicle, present until read-out. Rucaparib or vehicle: Rucaparib. Cell line: OCI-P5x (serous). Measured: 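ATP luminescence measured at 72 or 96 h according to the culture, then normalised and expressed as percent viability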. Direction: viability, normalised: higher = more viable cells remaining. Rule for the call: 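Active when normalised viability falls below 80 percent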. Calls: active = viability under 80%; inactive = viability 80% or more.
This is a random part of the about 2,100 reagents, in one setting of the screen. 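Calls flag viability under 80% in either arm, not effects specific to rucaparib; the reference for percent is not stated.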 The record does not give: the 100% reference.

MPHOSPH8, technical replicate 1 | viability, normalised (%): 67.9; call: active
MPHOSPH8, technical replicate 2 | viability, normalised (%): 61; call: active
MPHOSPH8, technical replicate 3 | viability, normalised (%): 63.5; call: active
DDX3Y, technical replicate 1 | viability, normalised (%): 43.7; call: active
DDX3Y, technical replicate 2 | viability, normalised (%): 45.2; call: active
DDX3Y, technical replicate 3 | viability, normalised (%): 49.1; call: active

2 of these entries, reformatted.
gene | technical replicate | viability, normalised (%) | call
MPHOSPH8 | 3 | 63.5 | active
DDX3Y | 1 | 43.7 | active

The listing continues:
MYBL1, technical replicate 1 | viability, normalised (%): 56.1; call: active
MYBL1, technical replicate 2 | viability, normalised (%): 49.8; call: active
MYBL1, technical replicate 3 | viability, normalised (%): 56.9; call: active
EVI5L, technical replicate 1 | viability, normalised (%): 77.6; call: active
EVI5L, technical replicate 2 | viability, normalised (%): 78.8; call: active
EVI5L, technical replicate 3 | viability, normalised (%): 86.4; call: inactive
